# Experimental data: PubChem BioAssay AID651965 (National Center for Advancing Translational Sciences (NCATS), 2013)
# Sequences of proteins named here, by UniProt entry; tags and fusion partners are left off.
# UniProt P80244, whole entry: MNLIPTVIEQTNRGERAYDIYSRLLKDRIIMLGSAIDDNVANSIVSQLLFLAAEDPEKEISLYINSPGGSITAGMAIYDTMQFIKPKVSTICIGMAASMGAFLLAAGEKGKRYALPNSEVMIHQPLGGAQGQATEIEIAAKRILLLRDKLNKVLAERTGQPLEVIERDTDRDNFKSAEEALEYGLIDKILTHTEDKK
# About 6,400 (1.9%) of roughly 340,000 compounds were called active. Listed are the inconclusive results; actives and inactives stand elsewhere. The call rests on the fitted dose curve; in most records, active means well fitted falling curve with a large enough effect; inconclusive means small, poorly fitted or top-dose-only effect; inactive means no such curve, though single readings can be large or run the other way.
# Molecular target: ATP-dependent Clp protease proteolytic subunit (Bacillus subtilis (strain 168)) (UniProt P80244)
# Test: qHTS Assay for Activators of ClpP; further: the source files actives as falling curves though it sought activators and does not explain the sign; nearly all actives have a fitted effect of over 65% in size
# Settings: purified B. subtilis ClpP, FRET peptide cleavage, 20 min
# Potency means the concentration at half of the fitted maximal effect.
row,Structure (SMILES),Potency
1,N#CC1(Nc2ccccc2)CCN(Cc2ccccc2)CC1,inconclusive: 3.98 µM
2,CN1CCN(CCOC(=O)C(O)(c2ccccc2)c2ccccc2)CC1,inconclusive: 31.6 µM
3,CN1CCC(Nc2cccc(F)c2)CC1,inconclusive: 25.1 µM
